Source: the supplement of paper PMC8104966
± gives the standard deviation of the averaged measurements. Some of the results follow. This data set is noisy: repeats of one test often differ as much as different tests do.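 Fusion between ACE2-bearing and full-length-spike-bearing U2OS cells was measured by imaging as the percentage of nuclei with both cell types' fluorescent markers. An inhibitory hit is a non-toxic compound whose fusion z-score is below -3, more than three standard deviations beneath the plate's DMSO wells.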

Each compound was assayed on U2OS ACE2 x SARS-CoV-2 spike co-culture (assay: cell-cell fusion (fraction fused) z-score vs plate DMSO control; higher = more fusion). Conditions: 30 µM; 5 h; toxicity class: non-toxic, passed QC.

Row | SMILES | cell-cell fusion (z-score)
1 | CSc1nc2cc(Cl)c(Oc3cccc(Cl)c3Cl)cc2[nH]1 | inactive: 2.46
2 | CNC(=C[N+](=O)[O-])NCCSCc1csc(CN(C)C)n1 [Nizatidine] | inactive: 2.62
3 | O=C(NCc1ccccc1)c1csc(Nc2ccncn2)n1 [Thiazovivin] | inactive: 1.23
4 | O=c1cc(-c2cccc(O)c2)oc2cc(O)ccc12 | inactive: 1.74
5 | CO/N=C(\C(=O)N[C@@H]1C(=O)N2C(C(=O)O)=C(C[n+]3cccc4c3CCC4)CS[C@H]12)c1csc(N)n1.O=S(=O)([O-])O [Cefpirome sulfate] | inactive: 1.49
6 | COc1ccc(-c2coc3cc(O)ccc3c2=O)cc1 | inactive: 2.4
7 | O=C1c2ccccc2C(=O)c2c(NCCc3ccc(O)cc3)ccc(NCCc3ccc(O)cc3)c21 | active: -4.15
8 | O=c1cc(-c2ccc(O)cc2)oc2cc(O)ccc12 | inactive: 0.552
9 | CN(C)c1nc(N)c(C(=O)N=C(N)N)nc1Cl.Cl [5-(N,N-Dimethyl)amiloride hydrochloride] | inactive: 1.45
10 | CC1(C)S[C@@H]2[C@H](NC(=O)[C@H](N)c3ccccc3)C(=O)N2[C@H]1C(=O)[O-].[Na+] [Ampicillin sodium] | inactive: 1
11 | COc1ccc([C@@H]2CC(=O)c3c(O)cc(O)cc3O2)cc1O | inactive: 1.98
12 | COc1ccnc(CS(=O)c2nc3cc(OC(F)F)ccc3[n-]2)c1OC.[Na+] (centres undefined) [Pantoprazole sodium] | inactive: 1.76
13 | CC1(C)S[C@@H]2[C@H](NC(=O)Cc3ccccc3)C(=O)N2[C@H]1C(=O)[O-].[K+] | inactive: 0.297
14 | CO/N=C(/C(=O)N[C@@H]1C(=O)N2C(C(=O)[O-])=C(COC(C)=O)CS[C@H]12)c1csc(N)n1.[Na+] | inactive: 1.13
15 | Cc1nnc(S)nc1O | inactive: 1.31
16 | CCOC(=O)[C@H](CCc1ccccc1)N[C@@H](C)C(=O)N1[C@H](C(=O)O)C[C@H]2CCCC[C@@H]21 [Trandolapril] | inactive: 1.1
17 | CC(=O)O[C@]1(C(C)=O)CCC2C3C=C(C)C4=CC(=O)CCC4(C)C3CCC21C (some centres undefined) | inactive: 0.172
18 | COc1cc2c3cc1Oc1c(OC)c(OC)cc4c1[C@@H](Cc1cccc(c1)Oc1ccc(c(O)c1)C[C@@H]3N(C)CC2)N(C)CC4.Cl.Cl | inactive: 1.54
19 | CN1CCN(c2ccc3nc(-c4c(N)c5c(F)cccc5[nH]c4=O)[nH]c3c2)CC1 [Dovitinib (TKI-258)] | inactive: 1.51
20 | CCC1(c2ccccc2)C(=O)NCNC1=O [Primidone] | active: -4.48
21 | CCC1(c2ccccc2)C(=O)NCNC1=O | inactive: 1.53
22 | Br.CCCN(CCC)C1CCc2cccc(O)c2C1 (racemic) [(±)-8-Hydroxy-DPAT hydrobromide] | inactive: 1.76
23 | O.OC[C@@H](O)C(O[C@@H]1O[C@H](CO)[C@H](O)[C@H](O)[C@H]1O)[C@H](O)[C@@H](O)CO (some centres undefined) | inactive: 1.26

Row | SMILES | cell-cell fusion (z-score)
24 | CC(C)[N+](C)(CCC(C(N)=O)(c1ccccc1)c1ccccc1)C(C)C.[I-] | inactive: 0.637
25 | Cc1cc(O)cc(=O)o1 | inactive: 1.6
26 | CC[C@H](NC(=O)c1c(C)c(-c2ccccc2)nc2ccccc12)c1ccccc1 | inactive: 1.35
27 | COc1ccc2c(c1)CCC1C2CC[C@@]2(C)C1CC[C@@H]2O (some centres undefined) | inactive: 0.579
28 | C[N+]1(C)[C@@H]2CC[C@H]1C[C@@H](OC(=O)C(O)c1ccccc1)C2.[Br-] (some centres undefined) [Homatropine Methylbromide] | inactive: 2.01
29 | C[C@@H](O)[C@H](N)C(=O)O [threonine] | inactive: -0.533
30 | C[C@@H](O)[C@H](N)C(=O)O | inactive: 1.42
31 | CC(Cc1ccc(OCC(=O)[O][Na])cc1)NCC(O)c1cccc(Cl)c1 (centres undefined) | inactive: 0.383
32 | Cc1ccc(O)c([C@H](CCN(C(C)C)C(C)C)c2ccccc2)c1.O=C(O)[C@H](O)[C@@H](O)C(=O)O [Tolterodine] | inactive: 1.63
33 | CCCc1cc(=O)[nH]c(=S)[nH]1 | inactive: 1.59
34 | CC(C)(NS(=O)(=O)c1ccc(Oc2ccc(F)cc2)cc1)C(=O)NO | -4.56 ± 3.1
35 | CC(C)[C@@H]1CC[C@@H](C)C[C@H]1OC(=O)c1ccccc1 | inactive: 2.07
36 | Br.CC(N)Cc1ccc(O)cc1 (centres undefined) | inactive: 1.11
37 | CC[C@@H](C)[C@H]1O[C@]2(CC[C@@H]1C)C[C@@H]1C[C@@H](C/C=C(\C)[C@@H](O[C@H]3C[C@H](OC)[C@@H](O[C@H]4C[C@H](OC)[C@@H](O)[C@H](C)O4)[C@H](C)O3)[C@@H](C)/C=C/C=C3\CO[C@@H]4[C@H](O)C(C)=C[C@@H](C(=O)O1)[C@]34O)O2 [Ivermectin] | inactive: 2.63
38 | CCN(CC)CCCN(c1ccccc1)C1Cc2ccccc2C1.Cl [Aprindine hydrochloride] | inactive: -2.65
39 | C[C@]12C=CC(=O)N[C@@H]1CC[C@@H]1[C@@H]2CC[C@]2(C)[C@@H](C(=O)Nc3cc(C(F)(F)F)ccc3C(F)(F)F)CC[C@@H]12 [Dutasteride] | inactive: 2.26
40 | COc1ccccc1OCCNCC(O)COc1cccc2[nH]c3ccccc3c12.COc1ccccc1OCCNCC(O)COc1cccc2[nH]c3ccccc3c12.O.O=P(O)(O)O.O=P(O)(O)O (centres undefined) [Carvedilol phosphate] | inactive: -1.55
41 | Cc1ccc(Nc2nccc(N(C)c3ccc4c(C)n(C)nc4c3)n2)cc1S(N)(=O)=O.Cl | active: -6.09
42 | C[Se]CCC(N)C(=O)O (centres undefined) [Selenomethionine] | inactive: 0.809
43 | C[C@H](N)Cc1cccc(C(F)(F)F)c1.Cl [(+)-Norfenfluramine hydrochloride] | inactive: 2.73
44 | Cc1ccc2c(Br)cc(Br)c(OC(=O)c3ccccc3)c2n1 | inactive: 1.53
45 | CC1(C)NC(=O)N(c2ccc([N+](=O)[O-])c(C(F)(F)F)c2)C1=O | inactive: 3.41
46 | CC1(C)NC(=O)N(c2ccc([N+](=O)[O-])c(C(F)(F)F)c2)C1=O [Nilutamide] | inactive: 1.07

6 entries drawn at random from those above, as already listed:
Row | SMILES | cell-cell fusion (z-score)
45 | CC1(C)NC(=O)N(c2ccc([N+](=O)[O-])c(C(F)(F)F)c2)C1=O | inactive: 3.41
26 | CC[C@H](NC(=O)c1c(C)c(-c2ccccc2)nc2ccccc12)c1ccccc1 | inactive: 1.35
37 | CC[C@@H](C)[C@H]1O[C@]2(CC[C@@H]1C)C[C@@H]1C[C@@H](C/C=C(\C)[C@@H](O[C@H]3C[C@H](OC)[C@@H](O[C@H]4C[C@H](OC)[C@@H](O)[C@H](C)O4)[C@H](C)O3)[C@@H](C)/C=C/C=C3\CO[C@@H]4[C@H](O)C(C)=C[C@@H](C(=O)O1)[C@]34O)O2 [Ivermectin] | inactive: 2.63
25 | Cc1cc(O)cc(=O)o1 | inactive: 1.6
43 | C[C@H](N)Cc1cccc(C(F)(F)F)c1.Cl [(+)-Norfenfluramine hydrochloride] | inactive: 2.73
33 | CCCc1cc(=O)[nH]c(=S)[nH]1 | inactive: 1.59

Remaining list, next part.

Row | SMILES | cell-cell fusion (z-score)
47 | O=C(OOC(=O)c1ccccc1)c1ccccc1 | inactive: 1.73
48 | CC1CCN=C(N)S1.Cl (racemic) [(±)-AMT hydrochloride] | inactive: 2.37
49 | CC(=O)N1CCN(c2ccc(OC[C@H]3CO[C@](Cn4ccnc4)(c4ccc(Cl)cc4Cl)O3)cc2)CC1 [Ketoconazole] | inactive: 2.17
50 | CCn1cc(C(=O)O)c(=O)c2cc(F)c(N3CCNC(C)C3)c(F)c21 (centres undefined) [Lomefloxacin] | inactive: 2.87
51 | COc1ccc2cc(-c3[nH]c(-c4ccc(S(C)=O)cc4)nc3-c3ccncc3)ccc2c1 (centres undefined) [Tie2 kinase inhibitor] | inactive: 1.67
52 | C[C@@H]1C[C@@H]([C@H](O)CC2CC(=O)NC(=O)C2)C(=O)[C@@H](C)C1 | inactive: 1.74
53 | C[C@H]1[C@H]2CCC3C4CC=C5C[C@@H](N(C)C)CC[C@]5(C)C4CC[C@@]32CN1C (some centres undefined) | inactive: 1.47
54 | COc1cc2ccc(=O)oc2c2ccoc12 | inactive: 1.8
55 | CN(C/C=C/c1ccccc1)Cc1cccc2ccccc12.Cl [Naftifine hydrochloride] | inactive: 4.29
56 | CC[C@@H]1C(=O)OC[C@@H]1Cc1cncn1C.Cl [(+)-Pilocarpine hydrochloride] | inactive: 2.24
57 | COc1cc2c(cc1OC)-c1c/c(=N\c3c(C)cc(C)cc3C)n(C)c(=O)n1CC2.Cl [Trequinsin hydrochloride] | active: -5.31
58 | CC(C)C[C@H](NC(=O)[C@H](O)[C@H](N)Cc1ccccc1)C(=O)O.Cl [Epibestatin hydrochloride] | inactive: 1.61
59 | CCCCCCCCCCC[C@@H](C[C@H]1OC(=O)[C@H]1CCCCCC)OC(=O)[C@@H](CC(C)C)NC=O | inactive: 2.55
60 | Oc1ccc2ccccc2c1SSc1c(O)ccc2ccccc12 | inactive: 1.25
61 | CC(C)[C@H](C(=O)Nc1ccc(C(=O)NO)cc1)c1ccccc1 | inactive: 1.3
62 | CO[C@H]1/C=C/O[C@@]2(C)Oc3c(C)c(O)c4c([O-])c(cc(O)c4c3C2=O)NC(=O)/C(C)=C\C=C\[C@H](C)[C@H](O)[C@@H](C)[C@@H](O)[C@@H](C)[C@H](OC(C)=O)[C@@H]1C.[Na+] [Rifamycin sodium salt] | inactive: 0.81
63 | CC[C@H](C)C(=O)O[C@H]1C[C@H](O)C=C2C=C[C@H](C)[C@H](CC[C@@H](O)C[C@@H](O)CC(=O)[O-])[C@H]21.[Na+] [Pravastatin sodium] | inactive: 4.02
64 | Oc1nc(-c2ccc(C(F)(F)F)cc2)nc2c1CSCC2 | inactive: 0.727
65 | NC(=O)CNCCC(c1ccccc1)c1ccccc1 [N-(3,3-Diphenylpropyl)glycinamide] | inactive: 2.71
66 | COc1ccc(C(=O)c2ccc(C)cc2)c(O)c1 | inactive: 0.393
67 | C#CCN(C)C(C)Cc1ccccc1.Cl (centres undefined) | inactive: -2.34
68 | COc1ccc(-c2coc3c(O)c(O)c(OC)cc3c2=O)cc1 | inactive: 2.14
69 | CC(N/C(=N/C#N)Nc1ccncc1)C(C)(C)C (centres undefined) | inactive: 2.58
